Measured values published in US20080221074A1, “Drug Screen and Treatment Method” (priority 2006, published 2008).
For at least one compound, name, drawing or mass did not settle the structure. Some results were stated once for a whole list of compounds, not compound by compound.

Legend:
[1] = test system: popliteal lymph node cells; assay: reporter antigen popliteal lymph node (PLN) assay; assay type: in vivo, BALB/C mice; conditions: 1 mg/day oral gavage
Source text: Analysis of immune suppression. Glucocorticoid steroids such as dexamethasone or hydrocortisone are typically immune suppressive and have significant toxicities associated with their use. Immune suppression was examined in a reporter antigen popliteal lymph node assay in mice essentially as previously described (C. Goebel et al., Inflamm. Res., 45(Suppl. 2):S85-S90, 1996; R. Pieters et al., Environmental Health Perspectives 107(Suppl. 5):673-677, 1999). […] In this protocol, the vehicle was 0.1% carboxymethylcellulose, 0.9% saline, 2% tween 80 and 0.05% phenol, which contained 17α-ethynylandrost-5-ene-3β,7β,17β-triol in suspension in drug treated animals. Assessment of activity included (1) measuring suppression of numbers of total lymphocytes, antigen specific IgM, IgG1 and IgG2a antibody secreting cells (ASC) (ELISPOT assay) in popliteal lymph node cells; (2) analysis of cell surface marker (CD4, CD8, CD19, F480, CD80, CD86) expression by flow cytometry of living cells in suspension; and (3) IL-4, TNFα and IFNγ production by lymphocytes in vitro (ELISA).
Groups (n=5 per group) of specific pathogen free BALB/C mice were used. […] The results were analyzed by two-tailed Student's t-test with equal variance. […] Single cell suspensions were prepared, resuspended in 1 mL PBS-BSA (1%) and counted. Cell numbers, IL-4, IL-5 and IFNγ were measured.

NF-κB = assay: inhibition of NF-κB activation in NF-κB-bla THP-1 cells after LPS stimulation; assay type: cell-based, human
Source text: Inhibition of NF-κB in vitro. […] Activation of NF-κB increases expression of a number of genes that mediate inflammation. This protocol used human THP-1 cells, which are human mononuclear blood cells with a monocyte phenotype. The cell line, referred to as NF-κB-bla THP-1, contained a β-lactamase reporter gene under the control of the NF-kB response element (Invitrogen, CellSensor™, product No. K1176). In this cell line, the β-lactamase reporter gene is stably integrated in the THP-1 cells. This cell line was used to detect agonists or antagonists of the NF-κB signaling pathway. These NF-κB-bla THP-1 cells respond to the presence of tumor necrosis factor alpha (TNFα) or bacterial lipopolysaccharide (LPS) by increased expression of the β-lactamase reporter gene. The level of β-lactamase enzyme activity was measured by fluorescence resonance energy transfer ratiometric detection. TNFα and LPS are both potent inflammation-inducing agents that activate NF-κB in THP1 cells. […]
The NF-κB-bla THP-1 cells were maintained by passaging or feeding as needed. […] The cells were plated at 20,000 cells/well in a 384-well Black-wall, clear bottom assay plates (Costar#3712-TC low fluorescence background plates) approximately 24 hours before adding either TNFα at 10 ng/mL or LPS at 0.2 ng/mL to activate NF-κB. […]

[2] = test system: osteoblasts and osteocytes; assay: osteoblast and osteocyte apoptosis in vertebral bone of ovariectomized mice (TUNEL); assay type: in vivo, Swiss Webster mice
Source text: The degree of apoptosis of osteoblasts and osteocytes in murine vertebral bone as a function of estrogen deficiency was examined. Swiss Webster mice (four months old) were ovariectomized. Twenty-eight days later, the animals were sacrificed, vertebrae were isolated, fixed and embedded, and then undecalcified in methacrylate.

**Q.** `C#C[C@]1(O)CC[C@H]2[C@@H]3[C@@H](O)C=C4C[C@@H](O)CC[C@]4(C)[C@H]3CC[C@@]21C` [17α-ethynylandrost-5-ene-3β,7β,17β-triol] was tested. Which “average number of lymphocytes in PLNs” value [1] did it give?
**A.** Its value is 8.2×106 per lymph node.

**Q.** How did the “maximum inhibition of NF-κB” value (NF-κB) turn out when `C[C@]12CC[C@H]3[C@@H]([C@@H](O)C=C4C[C@@H](O)CC[C@@]43C)[C@@H]1C[C@@H](O)[C@@H]2O` [androst-5-ene-3β,7β,16α,17β-tetrol] was run?
**A.** The value was “less than 80%”.

**Q.** How did the “maximum inhibition of NF-κB” value (NF-κB) turn out when `C[C@]12CC[C@H](O)CC1=C[C@H](O)[C@@H]1[C@@H]2CC[C@@]2(C)[C@H]1CC[C@]2(C)O` [3β,7β,17β-trihydroxy-17α-methylandrost-5-ene] was run?
**A.** The value was “less than 80%”.

**Q.** Which “osteoblast and osteocyte apoptosis” value [2] does the source give for `C[C@]12CC[C@@H]3c4ccc(O)cc4CC[C@H]3[C@@H]1CC[C@@H]2O` [estradiol, reference compound] here?
**A.** Its value is “reduce apoptosis”.
